Values from PubChem BioAssay AID602196 (INSERM, 2012)
Screen: 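Genes whose knock-down alters cisplatin killing of lung cancer cells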. System: human A549 lung cancer cells. Reagent: siRNA pair against human genes. Time to read-out: 48 h transfection before cisplatin; time from cisplatin to read-out not stated. Challenge: cisplatin at a dose killing half of control-siRNA cells; exact dose and duration not given. Read-out: 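Shift in cisplatin death relative to control siRNA, from -50 (all cells die) to +50 (no cells die); siRNAs harmful on their own scored 0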. Direction: two-siRNA summed score (-2 to +2): higher = both siRNAs protect from cisplatin killing; -2 means both sensitise; mean protection from cisplatin (shift in death): higher = protection from cisplatin killing. Call rule: 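Each siRNA scores 0 if harmful alone by LDH or WST-1, otherwise +1 if it reduces and -1 if it increases cisplatin killing; a gene is active when both siRNAs agree (sum +2 or -2)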. Meaning of the calls: active = both siRNAs shift cisplatin killing the same way; inactive = no consistent shift, or siRNA harmful alone.
Here is an unselected part of about 23,000 deposited reagents. Over the whole deposit, 455 (2%) got an active call. 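Active includes both protection and sensitisation; some change values fall well beyond the stated -50 to +50 range.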 A number with no mark means an inactive call. Not all columns of the deposit are shown. Not given: the amount of reagent.

With knock-down of DES [SID131505731], the screen gave two-siRNA summed score (-2 to +2) = 0; mean protection from cisplatin (shift in death) (%) = -2.7.
Depletion of FAT3 [SID131518300] came out at: two-siRNA summed score (-2 to +2) = 0; mean protection from cisplatin (shift in death) (%) = 18.1.
After knock-down of RIPOR1 [SID131503567] the results were two-siRNA summed score (-2 to +2) = 0; mean protection from cisplatin (shift in death) (%) = -9.2.
For NDUFS8 [SID131517445] the deposit lists two-siRNA summed score (-2 to +2) = 0; mean protection from cisplatin (shift in death) (%) = 13.4.
For CMIP [SID131515804], the entry reads two-siRNA summed score (-2 to +2) = 0; mean protection from cisplatin (shift in death) (%) = 9.7.
Depletion of SPG21 [SID131510408] gave: two-siRNA summed score (-2 to +2) = 0; mean protection from cisplatin (shift in death) (%) = 3.2.
Silencing of CYP11A1 [SID131505223] came out at: two-siRNA summed score (-2 to +2) = 0; mean protection from cisplatin (shift in death) (%) = -3.5.
ENPP1 [SID131506178] gave two-siRNA summed score (-2 to +2) = 0; mean protection from cisplatin (shift in death) (%) = -1.9.
MUC17 [SID131504903] scored two-siRNA summed score (-2 to +2) = 0; mean protection from cisplatin (shift in death) (%) = -4.2.
For LIPG [SID131500949], the values are two-siRNA summed score (-2 to +2) = -1; mean protection from cisplatin (shift in death) (%) = -13.9.
Depletion of LOC338825 [SID131509325] resulted in: two-siRNA summed score (-2 to +2) = 0; mean protection from cisplatin (shift in death) (%) = 2.
With knock-down of LINC00482 [SID131506952], the record shows two-siRNA summed score (-2 to +2) = 0; mean protection from cisplatin (shift in death) (%) = -0.8.
COL18A1 [SID131509681] showed two-siRNA summed score (-2 to +2) = 0; mean protection from cisplatin (shift in death) (%) = 2.4.
For MAPT [SID131517461], the entry reads two-siRNA summed score (-2 to +2) = 0; mean protection from cisplatin (shift in death) (%) = 13.5.
With knock-down of SERPINB10 [SID131521948], the screen gave two-siRNA summed score (-2 to +2) = 1; mean protection from cisplatin (shift in death) (%) = 15.5.
After knock-down of LOC440959 [SID131514105] the results were two-siRNA summed score (-2 to +2) = 0; mean protection from cisplatin (shift in death) (%) = 7.4.
Against RNASE4 [SID131505520], the entry reads two-siRNA summed score (-2 to +2) = 0; mean protection from cisplatin (shift in death) (%) = -3.
For DCBLD2 [SID131505956], the entry reads two-siRNA summed score (-2 to +2) = 0; mean protection from cisplatin (shift in death) (%) = -2.3.
Knock-down of MS4A4A [SID131500498] resulted in: two-siRNA summed score (-2 to +2) = -1; mean protection from cisplatin (shift in death) (%) = -24.5.
With knock-down of TCAF2 [SID131511434], the record shows two-siRNA summed score (-2 to +2) = 0; mean protection from cisplatin (shift in death) (%) = 4.4.
With knock-down of C1orf198 [SID131515086] the results were two-siRNA summed score (-2 to +2) = 0; mean protection from cisplatin (shift in death) (%) = 8.6.
With knock-down of CDCP2 [SID131521198] the results were two-siRNA summed score (-2 to +2) = 1; mean protection from cisplatin (shift in death) (%) = 12.6.
DCT [SID131501982] showed two-siRNA summed score (-2 to +2) = -1; mean protection from cisplatin (shift in death) (%) = -6.1.
With knock-down of AMPD3 [SID131518897], the screen gave two-siRNA summed score (-2 to +2) = 0; mean protection from cisplatin (shift in death) (%) = 48.1.
With knock-down of MRPL28 [SID131508994], the record shows two-siRNA summed score (-2 to +2) = 0; mean protection from cisplatin (shift in death) (%) = 1.7.
ZCCHC2 [SID131504350] showed two-siRNA summed score (-2 to +2) = 0; mean protection from cisplatin (shift in death) (%) = -5.7.
Depletion of ZCCHC2 [SID131513851] resulted in: two-siRNA summed score (-2 to +2) = 0; mean protection from cisplatin (shift in death) (%) = 7.1.
After knock-down of KAZN [SID131508203], the record shows two-siRNA summed score (-2 to +2) = 0; mean protection from cisplatin (shift in death) (%) = 0.8.
Depletion of FLNB [SID131502145] gave: two-siRNA summed score (-2 to +2) = -1; mean protection from cisplatin (shift in death) (%) = -5.
Silencing of PAQR8 [SID131521147] gave: two-siRNA summed score (-2 to +2) = 1; mean protection from cisplatin (shift in death) (%) = 12.4.
After knock-down of RNF103 [SID131500331], the record shows two-siRNA summed score (-2 to +2) = -2 (active); mean protection from cisplatin (shift in death) (%) = -23.
LOC347527 [SID131514066] showed two-siRNA summed score (-2 to +2) = 0; mean protection from cisplatin (shift in death) (%) = 7.3.
With knock-down of LOC285216 [SID131520990] the results were two-siRNA summed score (-2 to +2) = 1; mean protection from cisplatin (shift in death) (%) = 11.8.
Silencing of DGKG [SID131517113] gave: two-siRNA summed score (-2 to +2) = 0; mean protection from cisplatin (shift in death) (%) = 12.4.
For UHRF2 [SID131518236] the deposit lists two-siRNA summed score (-2 to +2) = 0; mean protection from cisplatin (shift in death) (%) = 17.4.
For PFKFB3 [SID131504496], the entry reads two-siRNA summed score (-2 to +2) = 0; mean protection from cisplatin (shift in death) (%) = -5.2.
Against LOC439960 [SID131514987], the values are two-siRNA summed score (-2 to +2) = 0; mean protection from cisplatin (shift in death) (%) = 8.5.
For LRRC56 [SID131507861] the deposit lists two-siRNA summed score (-2 to +2) = 0; mean protection from cisplatin (shift in death) (%) = 0.3.
Against LINC01257 [SID131516835], the values are two-siRNA summed score (-2 to +2) = 0; mean protection from cisplatin (shift in death) (%) = 11.8.
Depletion of ZNF195 [SID131515664] gave: two-siRNA summed score (-2 to +2) = 0; mean protection from cisplatin (shift in death) (%) = 9.5.

6 entries from above, reformatted.
target gene	PubChem SID	two-siRNA summed score (-2 to +2)	mean protection from cisplatin (shift in death) (%)
FAT3	SID131518300	0	18.1
RIPOR1	SID131503567	0	-9.2
NDUFS8	SID131517445	0	13.4
CMIP	SID131515804	0	9.7
SPG21	SID131510408	0	3.2
CYP11A1	SID131505223	0	-3.5
